Laboratory results: the supplement of paper PMC10849652
The other results are listed elsewhere or left out. Residues, ends and D or L forms follow the SMILES beside them. *: point of attachment. Cbz = O=C(OCc1ccccc1)*

The chains behind the UniProt entries cited, without tags or fusion partners. Where a name states a change or a piece, a line headed by the entry shows the natural chain unless it says otherwise.
UniProt Q9HAP2: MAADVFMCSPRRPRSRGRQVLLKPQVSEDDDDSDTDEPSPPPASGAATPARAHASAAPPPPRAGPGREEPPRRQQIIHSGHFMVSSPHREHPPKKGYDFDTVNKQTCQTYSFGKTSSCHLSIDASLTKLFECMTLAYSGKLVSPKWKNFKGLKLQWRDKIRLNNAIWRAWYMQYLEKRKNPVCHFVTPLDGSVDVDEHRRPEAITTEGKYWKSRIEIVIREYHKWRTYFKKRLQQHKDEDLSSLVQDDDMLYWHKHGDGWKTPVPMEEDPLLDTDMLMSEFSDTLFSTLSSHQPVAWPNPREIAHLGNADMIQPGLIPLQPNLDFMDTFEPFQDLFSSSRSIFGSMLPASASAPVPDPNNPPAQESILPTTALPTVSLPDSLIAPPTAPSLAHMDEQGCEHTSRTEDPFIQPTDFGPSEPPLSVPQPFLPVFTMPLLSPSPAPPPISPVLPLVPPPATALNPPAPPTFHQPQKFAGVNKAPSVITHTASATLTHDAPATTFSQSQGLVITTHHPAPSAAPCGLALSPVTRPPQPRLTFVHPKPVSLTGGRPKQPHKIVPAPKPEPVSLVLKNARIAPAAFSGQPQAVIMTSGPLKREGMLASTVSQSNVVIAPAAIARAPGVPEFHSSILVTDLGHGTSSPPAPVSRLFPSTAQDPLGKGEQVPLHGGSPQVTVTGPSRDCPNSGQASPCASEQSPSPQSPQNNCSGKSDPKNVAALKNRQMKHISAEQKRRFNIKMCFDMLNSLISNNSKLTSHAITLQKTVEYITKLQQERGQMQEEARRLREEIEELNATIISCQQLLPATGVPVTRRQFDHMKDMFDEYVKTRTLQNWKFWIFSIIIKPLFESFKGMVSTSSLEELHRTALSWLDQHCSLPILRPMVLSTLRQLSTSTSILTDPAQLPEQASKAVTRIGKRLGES
UniProt P34949: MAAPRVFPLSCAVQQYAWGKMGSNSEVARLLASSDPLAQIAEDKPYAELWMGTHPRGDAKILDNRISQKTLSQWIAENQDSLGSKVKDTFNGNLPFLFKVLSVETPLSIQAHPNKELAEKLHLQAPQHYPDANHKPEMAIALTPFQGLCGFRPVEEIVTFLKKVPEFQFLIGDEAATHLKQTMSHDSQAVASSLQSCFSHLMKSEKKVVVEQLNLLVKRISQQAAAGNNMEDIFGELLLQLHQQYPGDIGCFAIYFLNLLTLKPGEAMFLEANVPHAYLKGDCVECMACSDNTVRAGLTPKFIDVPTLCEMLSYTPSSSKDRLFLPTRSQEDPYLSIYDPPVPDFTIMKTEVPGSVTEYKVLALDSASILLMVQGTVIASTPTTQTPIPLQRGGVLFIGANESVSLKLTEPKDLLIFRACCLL
UniProt Q8N4V1: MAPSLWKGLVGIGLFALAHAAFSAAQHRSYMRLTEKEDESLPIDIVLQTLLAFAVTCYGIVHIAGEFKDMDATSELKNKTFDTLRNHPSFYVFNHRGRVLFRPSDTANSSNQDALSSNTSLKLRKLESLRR
UniProt O96007: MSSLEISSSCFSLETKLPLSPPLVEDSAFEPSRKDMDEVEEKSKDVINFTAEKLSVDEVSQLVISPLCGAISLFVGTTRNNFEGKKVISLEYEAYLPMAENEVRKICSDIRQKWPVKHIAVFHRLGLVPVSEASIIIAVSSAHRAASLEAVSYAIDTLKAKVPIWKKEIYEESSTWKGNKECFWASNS
UniProt Q8IY33: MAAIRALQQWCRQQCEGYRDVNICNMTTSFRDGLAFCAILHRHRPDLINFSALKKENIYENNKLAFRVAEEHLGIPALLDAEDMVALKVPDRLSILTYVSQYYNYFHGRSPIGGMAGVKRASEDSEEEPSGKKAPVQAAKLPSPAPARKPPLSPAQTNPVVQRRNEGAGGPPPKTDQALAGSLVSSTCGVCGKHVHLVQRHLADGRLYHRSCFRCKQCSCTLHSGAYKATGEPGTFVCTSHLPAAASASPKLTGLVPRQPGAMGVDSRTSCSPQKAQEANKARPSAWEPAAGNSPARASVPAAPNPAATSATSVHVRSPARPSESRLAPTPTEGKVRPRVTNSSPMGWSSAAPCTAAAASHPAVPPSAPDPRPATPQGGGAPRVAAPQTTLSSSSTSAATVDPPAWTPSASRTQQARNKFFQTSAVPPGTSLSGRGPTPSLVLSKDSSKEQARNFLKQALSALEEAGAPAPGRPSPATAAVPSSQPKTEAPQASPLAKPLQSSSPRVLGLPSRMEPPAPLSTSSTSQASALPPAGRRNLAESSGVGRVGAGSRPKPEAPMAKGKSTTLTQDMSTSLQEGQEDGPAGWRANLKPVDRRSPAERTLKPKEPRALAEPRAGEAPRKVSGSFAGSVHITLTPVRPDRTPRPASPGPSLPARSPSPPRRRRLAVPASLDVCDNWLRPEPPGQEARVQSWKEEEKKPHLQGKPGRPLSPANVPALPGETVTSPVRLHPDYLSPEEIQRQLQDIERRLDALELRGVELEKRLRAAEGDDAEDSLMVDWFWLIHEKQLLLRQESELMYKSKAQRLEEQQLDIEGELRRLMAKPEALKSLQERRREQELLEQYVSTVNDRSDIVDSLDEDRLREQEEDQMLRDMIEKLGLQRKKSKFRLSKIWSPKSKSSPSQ

Experiments:
Test in all cases: log2 fold change, soluble protein after heating vs DMSO (PISA); higher = thermal stabilisation; K562 cells, 10 uM, 30 min; active = over 0.2 and 3.5 SD of the protein, either way, in both replicates (recomputed)
erlotinib = compound: C#Cc1cccc(Nc2ncnc3cc(OCCOC)c(OCCOC)cc23)c1 [erlotinib]
Outline: (§1)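 K562 cells at 2×10^6 cells/mL were treated for 30 min with 10 μM compound, and aliquots were heated for 3 min over 48°C-58°C before pooling. Extraction used PBS with 0.5% NP-40 at 4°C, and soluble protein was the supernatant after 21,000xg for 90 min, measured by TMTpro 16plex LC-MS/MS with channel sums equalised. Thermal stability values, relative to control samples and from duplicates, are log2 fold changes.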

[1] = compound: C/C(=N\NC(=O)C1=CC(=CC=C1)S(=O)(=O)N2CCOCC2)/C3=C(C=CC(=C3)Cl)O
Outline: as §1

[2] = compound: C1=CC(=C(C=C1Cl)C2=NC3=NC=CN=C3C(=N2)NC4=CC=NC=C4)F
Outline: as §1

[3] = compound: C1=CC(=CC=C1C2=NC3=C(N2)C=C(C=C3)C(=O)N)OC4=CC=C(C=C4)Cl
Outline: as §1

[4] = compound: C1=CC2=C(C=CC(=C2)/C=C\3/C(=O)NC(=NCC4=CC=CS4)S3)N=C1
Outline: as §1

[5] = compound: C1=CC2=NC=CN=C2C=C1/C=C/3\C(=O)NC(=O)S3
Outline: as §1

[6] = compound: C1=CC=C(C=C1)C2=NC(=C(N2)C3=CC=NC=C3)C4=CC(=C(C=C4)Cl)O
Outline: as §1

[7] = compound: C1=CC=C2C(=C1)C3=NNC4=CC=CC(=C43)C2=O
Outline: as §1

[8] = compound: C1CCN(C1)C(=O)NC2=CC=CC(=C2)NC3=NC=C(C(=N3)NCCC4=CN=CN4)Br
Outline: as §1

[9] = compound: C1CN(CCC1(CC2=CC=C(C=C2)Cl)N)C3=NC=NC4=C3C=CN4
Outline: as §1

IRAK-1-4 Inhibitor I = compound: C1COCCN1CCN2C3=CC=CC=C3N=C2NC(=O)C4=CC(=CC=C4)[N+](=O)[O-] [IRAK-1-4 Inhibitor I]
Outline: as §1

ibrutinib = compound: C=CC(=O)N1CCC[C@@H](n2nc(-c3ccc(Oc4ccccc4)cc3)c3c(N)ncnc32)C1 [ibrutinib]
Outline: as §1

[10] = compound: CC(=O)c1cnc2ccc(-c3cc(Cl)c(O)c(Cl)c3)nc2c1N[C@H]1CC[C@H](CN(C)C)CC1
Outline: as §1

ralimetinib = compound: CC(C)(C)Cn1c(N)nc2ccc(-c3[nH]c(C(C)(C)C)nc3-c3ccc(F)cc3)nc21 [ralimetinib]
Outline: as §1

[11] = compound: CC(C)(O)CC(=O)NCCn1ccc2ncnc(Nc3ccc(Oc4cccc(C(F)(F)F)c4)c(Cl)c3)c21
Outline: as §1

[12] = compound: CC(C)C1=C2N=C(C=C(N2N=C1)NCC3=CC=CC=C3)NCCCCCCN
Outline: as §1

[13] = compound: CC(C)C[C@@H](C=O)NC(=O)[C@H](CC(C)C)NC(=O)[C@H](CC(C)C)NC(=O)OCc1ccccc1
Outline: as §1

pinometostat = compound: CC(C)N(C[C@H]1O[C@@H](n2cnc3c(N)ncnc32)[C@H](O)[C@@H]1O)[C@H]1C[C@@H](CCc2nc3cc(C(C)(C)C)ccc3[nH]2)C1 [pinometostat]
Outline: as §1

[14] = compound: CC1=C(C(CC(=O)N1)C2=CC=C(C=C2)C(F)(F)F)C(=O)NC3=C(C=C4C(=C3)C=NN4)F
Outline: as §1

[15] = compound: CC1=C(C2=C(C=C1)C(=O)C3=CC=CC=C3N2CCCN)C
Outline: as §1

Measured: log2 fold change

MRPL28 (UniProt Q13084)
inactive: erlotinib -0.117 | [1] -0.065 | [2] -0.155 | [3] 0.254 | [4] -0.042 | [5] -0.041 | [6] 0.05 | [7] 0.16 | [8] -0.076 | [9] -0.305 | IRAK-1-4 Inhibitor I -0.124 | ibrutinib -0.06 | [10] 0.101 | ralimetinib 0.13 | [11] 0.013 | [12] 0.198 | [13] 0.136 | pinometostat 0.061 | [14] 0.052 | [15] 0.023

MRPL54 (UniProt Q6P161)
inactive: erlotinib -0.053 | [1] -0.089 | [2] -0.183 | [3] 0.095 | [4] -0.1 | [5] 0.032 | [6] -0.033 | [7] 0.032 | [8] 0.077 | [9] 0.079 | IRAK-1-4 Inhibitor I 0.04 | ibrutinib 0.053 | [10] 0.052 | ralimetinib 0.038 | [11] 0.081 | [12] -0.025 | [13] 0.211 | pinometostat 0.078 | [14] 0.05 | [15] -0.278

MLXIP (UniProt Q9HAP2)
inactive: erlotinib -0.013 | [1] 0.117 | [2] 0.111 | [3] 0.021 | [4] 0.085 | [5] -0.037 | [6] 0.104 | [7] 0.044 | [8] -0.013 | [9] 0.019 | IRAK-1-4 Inhibitor I 0.009 | ibrutinib -0.258 | [10] -0.254 | ralimetinib 0 | [11] -0.061 | [12] -0.063 | [13] -0.035 | pinometostat -0.094 | [14] 0.049 | [15] 0.02

MPI (UniProt P34949)
inactive: erlotinib 0.008 | [1] -0.073 | [2] 0.059 | [3] 0.057 | [4] 0.035 | [5] -0.035 | [6] 0.09 | [7] 0.056 | [8] 0.015 | [9] 0.086 | IRAK-1-4 Inhibitor I 0.02 | ibrutinib -0.005 | [10] -0.029 | ralimetinib 0.028 | [11] -0.002 | [12] 0.089 | [13] -0.02 | pinometostat -0.01 | [14] 0.025 | [15] -0.033

MRPL30 isoform 2 (UniProt Q8TCC3)
inactive: erlotinib -0.083 | [1] -0.15 | [2] -0.221 | [3] 0.015 | [4] -0.112 | [5] -0.088 | [6] 0.133 | [7] 0.115 | [8] -0.01 | [9] -0.191 | IRAK-1-4 Inhibitor I -0.08 | ibrutinib 0.023 | [10] 0.068 | ralimetinib 0.114 | [11] 0.075 | [12] -0.026 | [13] 0.132 | pinometostat 0.151 | [14] -0.047 | [15] -0.157

MRPL21 (UniProt Q7Z2W9)
inactive: erlotinib -0.116 | [1] -0.034 | [2] -0.144 | [3] 0.081 | [4] -0.038 | [5] -0.032 | [6] 0.008 | [7] 0.132 | [8] 0.005 | [9] -0.192 | IRAK-1-4 Inhibitor I -0.177 | ibrutinib -0.046 | [10] 0.024 | ralimetinib 0.046 | [11] 0.019 | [12] 0.061 | [13] 0.038 | pinometostat 0.141 | [14] -0.01 | [15] -0.003

MRPL32 (UniProt Q9BYC8)
inactive: erlotinib -0.106 | [1] -0.133 | [2] -0.178 | [3] 0.049 | [4] -0.149 | [5] 0.018 | [6] -0.077 | [7] -0.012 | [8] 0.008 | [9] 0.008 | IRAK-1-4 Inhibitor I -0.028 | ibrutinib 0.021 | [10] 0.121 | ralimetinib 0.027 | [11] 0.031 | [12] 0.074 | [13] 0.154 | pinometostat 0.063 | [14] 0.09 | [15] -0.033

MRPL51 (UniProt Q4U2R6)
inactive: erlotinib -0.098 | [1] -0.143 | [2] -0.274 | [3] 0.17 | [4] -0.105 | [5] 0 | [6] -0.03 | [7] 0.159 | [8] 0.054 | [9] -0.119 | IRAK-1-4 Inhibitor I -0.091 | ibrutinib 0.025 | [10] 0.124 | ralimetinib 0.036 | [11] 0.037 | [12] -0.229 | [13] 0.127 | pinometostat 0.139 | [14] 0.159 | [15] -0.154

MMGT1 isoform 2 (UniProt Q8N4V1)
inactive: erlotinib 0.053 | [1] 0.054 | [2] 0.12 | [3] 0.05 | [4] 0.05 | [5] 0.023 | [6] -0.001 | [7] 0.006 | [8] 0.044 | [9] 0.002 | IRAK-1-4 Inhibitor I 0.007 | ibrutinib -0.002 | [10] -0.015 | ralimetinib -0.014 | [11] -0.011 | [12] -0.028 | [13] -0.023 | pinometostat -0.049 | [14] -0.001 | [15] 0.017

Two successive records out of the list so far:
MRPL51 (UniProt Q4U2R6)
inactive: erlotinib -0.098 | [1] -0.143 | [2] -0.274 | [3] 0.17 | [4] -0.105 | [5] 0 | [6] -0.03 | [7] 0.159 | [8] 0.054 | [9] -0.119 | IRAK-1-4 Inhibitor I -0.091 | ibrutinib 0.025 | [10] 0.124 | ralimetinib 0.036 | [11] 0.037 | [12] -0.229 | [13] 0.127 | pinometostat 0.139 | [14] 0.159 | [15] -0.154

MMGT1 isoform 2 (UniProt Q8N4V1)
inactive: erlotinib 0.053 | [1] 0.054 | [2] 0.12 | [3] 0.05 | [4] 0.05 | [5] 0.023 | [6] -0.001 | [7] 0.006 | [8] 0.044 | [9] 0.002 | IRAK-1-4 Inhibitor I 0.007 | ibrutinib -0.002 | [10] -0.015 | ralimetinib -0.014 | [11] -0.011 | [12] -0.028 | [13] -0.023 | pinometostat -0.049 | [14] -0.001 | [15] 0.017

Following part:

MOCS2 (UniProt O96007)
inactive: erlotinib -0.006 | [1] -0.05 | [2] 0.01 | [3] -0.006 | [4] 0.002 | [5] 0.006 | [6] -0.027 | [7] 0.034 | [8] -0.013 | [9] 0.058 | IRAK-1-4 Inhibitor I 0.061 | ibrutinib 0.039 | [10] 0.003 | ralimetinib -0.04 | [11] -0.022 | [12] 0.087 | [13] -0.017 | pinometostat -0.017 | [14] -0.002 | [15] -0.018

MRPL22 (UniProt Q9NWU5)
inactive: erlotinib 0.001 | [1] -0.056 | [2] -0.189 | [3] 0.085 | [4] 0.033 | [5] -0.086 | [6] 0.021 | [7] 0.119 | [8] -0.042 | [9] -0.183 | IRAK-1-4 Inhibitor I -0.023 | ibrutinib -0.036 | [10] 0.104 | ralimetinib 0.111 | [11] -0.012 | [12] -0.106 | [13] 0.038 | pinometostat 0.044 | [14] -0.006 | [15] -0.057

MICALL2 (UniProt Q8IY33)
inactive: erlotinib 0.233 | [1] 0.017 | [2] 0.033 | [3] 0.059 | [4] 0.033 | [5] 0.038 | [6] 0.015 | [7] 0.045 | [8] -0.02 | [9] 0.024 | IRAK-1-4 Inhibitor I -0.045 | ibrutinib -0.053 | [10] -0.064 | ralimetinib -0.034 | [11] -0.053 | [12] -0.119 | [13] -0.057 | pinometostat 0.021 | [14] -0.015 | [15] -0.016
